Data: patent US20240108618A1, “KRAS G12C INHIBITOR DOSING REGIMENS” (Eli Lilly and Company, priority 2022, published 2024)

Assays:
[1] = system: KRAS G12C-mutant advanced NSCLC; assay: NCT04956640 Phase 1b Cohort B4 (with pembrolizumab) clinical response (BOR, ORR, DCR, DOR, TTR, % change from baseline, treatment duration); assay type: in vivo, human
Procedure: (§1) The term “BOR” as used herein refers to best overall response based on investigator assessments using RECIST criteria (version 1.1). The minimum duration for BOR of SD is at least 6 weeks after the date of first dose of study drug.
(§2) The term “DOR” as used herein refers to duration of response, wherein DOR in months is calculated as the event or censoring date minus the response start date plus 1 day divided by 30.4375.
(§3) The term “ORR” as used herein refers to objective response rate, wherein objective response rate is the proportion of patients with BOR of CR or PR. Objective response rate, unconfirmed, is the proportion of patients with BOR of CR, PR, or uPR.
(§4) The term “TTR” as used herein refers to time to response, wherein TTR in months is calculated as response start date minus first dose date plus 1 day divided by 30.4375.

[2] = system: KRAS G12C-mutant advanced CRC; assay: NCT04956640 Phase 1b Cohort C2 (with cetuximab) clinical response (BOR, ORR, DCR, DOR, TTR, % change from baseline, treatment duration); conditions: human, in vivo
Procedure: as §1, §2, §3, §4
(§5) NCT04956640 includes Phase 1a dose escalation (Part A of NCT04956640, see Table 3) followed by a Phase 1b dose expansion (Parts B to E of NCT04956640, see Table 4). […] Phase 1b dose expansion will include 12 cohorts (See Table 4) to further evaluate safety and clinical activity.

[3] = system: KRAS G12C-mutant advanced solid tumors; assay: NCT04956640 Phase 1a monotherapy clinical response (BOR, ORR, DCR, DOR, TTR, % change from baseline, treatment duration); assay type: in vivo, human; conditions: for TOS in Months, Median / TOT in Months of the compound of Formula I, Median / Time on Study (TOS) in Months, Mean / Time on Treatment (TOT) in Months of the compound of Formula I, Mean: Phase 1a
Procedure: as §1, §2, §3, §4, §5

[4] = Total (N = 25), Cohort B4, April 2023
[5] = combination with pembrolizumab, Total (N = 25), Cohort B4, April 2023
[6] = combination with pembrolizumab, starting dose 50 mg BID (N = 5), Cohort B4, April 2023
[7] = combination with pembrolizumab, starting dose 100 mg BID (N = 14), Cohort B4, April 2023
[8] = combination with pembrolizumab, starting dose 150 mg BID (N = 6), Cohort B4, April 2023
[9] = starting dose 50 mg BID (N = 5), Cohort B4, April 2023
[10] = starting dose 100 mg BID (N = 14), Cohort B4, April 2023
[11] = starting dose 150 mg BID (N = 6), Cohort B4, April 2023
[12] = April 2023, starting dose 50 mg BID (N = 16)
[13] = April 2023, starting dose 100 mg BID (N = 32)
[14] = April 2023, starting dose 150 mg BID (N = 48)
[15] = April 2023, starting dose 200 mg BID (N = 13)

C=CC(=O)N1CCN2C(=O)c3cc(F)c(-c4ccc(F)c5sc(N)c(C#N)c45)c(Cl)c3OCC[C@H]2C1 (single isomer, unassigned) [Formula I]
TOS in Months, Max [1, 4]: 9.79 Months
TOS in Months, Median [1, 4]: 4.76 Months
TOS in Months, Min [1, 4]: 0.33, Months
TOS in Months, Q1 [1, 4]: 2.40, Months
TOS in Months, Q3 [1, 4]: 6.74 Months
TOT in Months of any treatment, Min [1, 4]: 0.33, Months
TOT in Months of any treatment, Q1 [1, 4]: 1.41, Months
TOT in Months of the compound of Formula I, Min [1, 4]: 0.33, Months
TOT in Months of the compound of Formula I, Q1 [1, 4]: 1.41, Months
Time on Study (TOS) in Months, Mean [1, 4]: 4.76 Months
Time on Treatment (TOT) in Months of any treatment, Mean [1, 4]: 4.17 Months
Time on Treatment (TOT) in Months of the compound of Formula I, Mean [1, 4]: 4.17 Months
TOT in Months of Combination, Min [1, 5]: 0.33, Months
TOT in Months of Combination, Q1 [1, 5]: 1.25, Months
TOT in Months of Combination, Min [1, 6]: 0.72, Months
TOT in Months of Combination, Q1 [1, 6]: 2.10, Months
TOT in Months of Combination, Median [1, 7]: 2.30 Months
TOT in Months of Combination, Min [1, 7]: 0.33, Months
TOT in Months of Combination, Q1 [1, 7]: 0.85, Months
TOT in Months of Combination, Min [1, 8]: 0.72, Months
TOT in Months of Combination, Q1 [1, 8]: 1.45, Months
Median time on treatment ([1]; human, in vivo): 2.5 months
patients remain ongoing ([1]; human, in vivo): 100%
TOS in Months, Max [1, 9]: 5.42 Months
TOS in Months, Median [1, 9]: 4.67 Months
TOS in Months, Min [1, 9]: 3.19, Months
TOS in Months, Q1 [1, 9]: 4.04, Months
TOS in Months, Q3 [1, 9]: 4.76 Months
TOT in Months of any treatment, Max [1, 9]: 4.76 Months
TOT in Months of any treatment, Min [1, 9]: 1.41, Months
TOT in Months of any treatment, Q1 [1, 9]: 2.79, Months
TOT in Months of the compound of Formula I, Max [1, 9]: 4.76 Months
TOT in Months of the compound of Formula I, Min [1, 9]: 1.41, Months
TOT in Months of the compound of Formula I, Q1 [1, 9]: 2.79, Months
Time on Study (TOS) in Months, Mean [1, 9]: 4.42 Months
Time on Treatment (TOT) in Months of any treatment, Mean [1, 9]: 3.54 Months
Time on Treatment (TOT) in Months of the compound of Formula I, Mean [1, 9]: 3.54 Months
TOS in Months, Max [1, 10]: 9.79 Months
TOS in Months, Median [1, 10]: 2.53 Months
TOS in Months, Min [1, 10]: 0.33, Months
TOS in Months, Q1 [1, 10]: 0.85, Months
TOS in Months, Q3 [1, 10]: 5.91 Months
TOT in Months of any treatment, Median [1, 10]: 2.53 Months
TOT in Months of any treatment, Min [1, 10]: 0.33, Months
TOT in Months of any treatment, Q1 [1, 10]: 0.85, Months
TOT in Months of the compound of Formula I, Median [1, 10]: 2.53 Months
TOT in Months of the compound of Formula I, Min [1, 10]: 0.33, Months
TOT in Months of the compound of Formula I, Q1 [1, 10]: 0.85, Months
Time on Study (TOS) in Months, Mean [1, 10]: 4.02 Months
Time on Treatment (TOT) in Months of any treatment, Mean [1, 10]: 3.81 Months
Time on Treatment (TOT) in Months of the compound of Formula I, Mean [1, 10]: 3.81 Months
TOS in Months, Max [1, 11]: 8.34 Months
TOS in Months, Median [1, 11]: 7.34 Months
TOS in Months, Min [1, 11]: 4.44, Months
TOS in Months, Q1 [1, 11]: 4.86, Months
TOS in Months, Q3 [1, 11]: 8.18 Months
TOT in Months of any treatment, Median [1, 11]: 5.95 Months
TOT in Months of any treatment, Min [1, 11]: 0.95, Months
TOT in Months of any treatment, Q1 [1, 11]: 4.86, Months
TOT in Months of any treatment, Q3 [1, 11]: 7.13 Months
TOT in Months of the compound of Formula I, Median [1, 11]: 5.95 Months
TOT in Months of the compound of Formula I, Min [1, 11]: 0.95, Months
TOT in Months of the compound of Formula I, Q1 [1, 11]: 4.86, Months
TOT in Months of the compound of Formula I, Q3 [1, 11]: 7.13 Months
Time on Study (TOS) in Months, Mean [1, 11]: 6.75 Months
Time on Treatment (TOT) in Months of any treatment, Mean [1, 11]: 5.53 Months
Time on Treatment (TOT) in Months of the compound of Formula I, Mean [1, 11]: 5.53 Months
Median time on treatment [2]: 1.8 months
TOS in Months, Median ([3]; April 2023, Total (N = 109)): 6.08 Months
TOT in Months of the compound of Formula I, Median ([3]; April 2023, Total (N = 109)): 4.11 Months
Time on Study (TOS) in Months, Mean ([3]; April 2023, Total (N = 109)): 6.88 Months
Time on Treatment (TOT) in Months of the compound of Formula I, Mean ([3]; April 2023, Total (N = 109)): 5.16 Months
TOS in Months, Median [3, 12]: 8.95 Months
TOT in Months of the compound of Formula I, Median [3, 12]: 4.99 Months
Time on Study (TOS) in Months, Mean [3, 12]: 9.74 Months
Time on Treatment (TOT) in Months of the compound of Formula I, Mean [3, 12]: 6.65 Months
TOS in Months, Median [3, 13]: 6.67 Months
TOT in Months of the compound of Formula I, Median [3, 13]: 4.16 Months
Time on Study (TOS) in Months, Mean [3, 13]: 6.71 Months
Time on Treatment (TOT) in Months of the compound of Formula I, Mean [3, 13]: 5.11 Months
TOS in Months, Median [3, 14]: 3.58 Months
TOT in Months of the compound of Formula I, Median [3, 14]: 2.91 Months
Time on Study (TOS) in Months, Mean [3, 14]: 5.31 Months
Time on Treatment (TOT) in Months of the compound of Formula I, Mean [3, 14]: 4.50 Months
TOS in Months, Median [3, 15]: 10.48 Months
TOT in Months of the compound of Formula I, Median [3, 15]: 7.10 Months
Time on Study (TOS) in Months, Mean [3, 15]: 9.57 Months
Time on Treatment (TOT) in Months of the compound of Formula I, Mean [3, 15]: 5.91 Months
Median time on treatment ([3]; human, in vivo): 3.8 months
